# The supplement of paper PMC12889115
# The other results are listed elsewhere or left out. Values are raw readings; no control value is given beside them.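 Primary screen: polymyxin B was added at a level permeabilizing Salmonella outer membranes while sparing inner membranes. DMSO wells, both with and without polymyxin B, established maximum growth. Plate-to-plate variation meant each plate was ranked on its own, and the lowest-OD600 compounds were selected as hits.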
# Test system: Salmonella enterica serovar Typhimurium SL1344
# Assay: bacterial growth OD600 after 18 h with compound and polymyxin B; higher = more bacterial growth (less inhibition)
# Conditions: 50 µM, Mueller-Hinton broth
structure (smiles),measurement,setting,value
COc1ccc(C(=O)N2CCC(CCC(=O)NC3CCN(Cc4ccccc4)C3)CC2)cc1 (stereo not given),bacterial growth OD600,polymyxin B 1 µg/mL,0.875
CCOC(=O)C1(CCCc2ccccc2)CCCN(C(=O)c2ccoc2)C1 (stereo not given),bacterial growth OD600,polymyxin B 1 µg/mL,1.04
O=C(NC1CC(=O)N(Cc2ccccc2C(F)(F)F)C1)c1ccc[n+]([O-])c1 (stereo not given),bacterial growth OD600,polymyxin B 1 µg/mL,0.736
O=C(NCC1CCCCO1)c1coc(COc2ccc(F)cc2)n1 (stereo not given),bacterial growth OD600,polymyxin B 1 µg/mL,0.932
CCOC(=O)C1(Cc2ccccc2)CCCN(Cc2ccc(OC)c(O)c2)C1 (stereo not given),bacterial growth OD600,polymyxin B 1 µg/mL,1.02
CN(Cc1ccccc1C(F)(F)F)C(=O)CCC1(Cc2cccc3ccccc23)CCC(=O)N1 (stereo not given),bacterial growth OD600,polymyxin B 0.75 µg/mL,0
C#Cc1cccc(C(=O)N2CCC3(CC2)c2ccccc2[C@@H](NC(=O)C(C)C)[C@@H]3OCCOC)c1,bacterial growth OD600,polymyxin B 0.75 µg/mL,0.938
COCCN(CC1CCN(Cc2ccccc2F)CC1)C(=O)Cc1c(C)noc1C,bacterial growth OD600,polymyxin B 1 µg/mL,1.2
Cc1c(C(=O)NCCN2CCOCC2)cnn1-c1ncc2c(n1)-c1ccccc1SC2,bacterial growth OD600,polymyxin B 0.75 µg/mL,0.831
CN(Cc1ccc(F)cc1)C(=O)c1coc(COc2cccc(F)c2)n1,bacterial growth OD600,polymyxin B 1 µg/mL,0.784
COCCC(=O)N1CCC(Oc2ccc(C(=O)N3CCCC(CCCO)C3)cc2)CC1 (stereo not given),bacterial growth OD600,polymyxin B 1 µg/mL,1.06
c1ccc(Cc2cn[nH]c2C2CCCN(Cc3ccco3)C2)cc1 (stereo not given),bacterial growth OD600,polymyxin B 0.75 µg/mL,0.865
CCCCc1nc2cc(C(=O)NCc3nc4ccccc4o3)ccc2o1,bacterial growth OD600,polymyxin B 0.75 µg/mL,0.526
COC(=O)CCCC(=O)N1CCCC(CCc2ccc(F)cc2F)C1 (stereo not given),bacterial growth OD600,polymyxin B 0.75 µg/mL,0.409
CCOc1ccccc1CNC(C)c1cnn(-c2cccc(F)c2)c1C (stereo not given),bacterial growth OD600,polymyxin B 0.75 µg/mL,0.864
C=CCCC(=O)NC1CC(C)(C)Cc2c1cnn2-c1ccc(OC)cc1 (stereo not given),bacterial growth OD600,polymyxin B 1 µg/mL,0.978
COc1cccc(CC2(CO)CCCN(Cc3c[nH]nc3-c3cc(C)ccc3C)C2)c1 (stereo not given),bacterial growth OD600,polymyxin B 1 µg/mL,0.8
CCN1CC(CNC(=O)c2cc(NC(=O)COC)c3c(c2)ncn3CCc2ccccc2)CC1=O (stereo not given),bacterial growth OD600,polymyxin B 0.75 µg/mL,1.08
COC(=O)C(CCSC)NC(=O)c1cc(COc2ccc(C)c(C)c2)on1 (stereo not given),bacterial growth OD600,polymyxin B 0.75 µg/mL,0.006
Cc1ccc(CN(C)C(=O)c2coc(COc3cccc(F)c3F)n2)cc1,bacterial growth OD600,polymyxin B 1 µg/mL,0.993

# Sorted by number of heavy atoms (falling): part of the list above.
structure (smiles),measurement,setting,value
COCCN(CC1CCN(Cc2ccccc2F)CC1)C(=O)Cc1c(C)noc1C,bacterial growth OD600,polymyxin B 1 µg/mL,1.2
O=C(NC1CC(=O)N(Cc2ccccc2C(F)(F)F)C1)c1ccc[n+]([O-])c1 (stereo not given),bacterial growth OD600,polymyxin B 1 µg/mL,0.736
O=C(NCC1CCCCO1)c1coc(COc2ccc(F)cc2)n1 (stereo not given),bacterial growth OD600,polymyxin B 1 µg/mL,0.932
